No constants are given. Whether binding was seen depends on the method and setting. Binding seen in cells or lysates may run through a third protein. Some results given as binding are weak or reduced against the parent protein; the word gives no strength. Where a sequence is shown, tags or fusion partners need not be part of it.
Tests used:
HA-tagged VPS4B (human) = target: T1, HA-tagged VPS4B (human) (UniProt O75351); test: co-IP; HEK293T co-transfected for 24 h with FLAG-tagged ZFYVE19 or its variants and HA-tagged partner; cells sonicated in 1× DPBS; lysate on EZview Red Anti-HA Affinity Gel overnight at 4 °C; five washes with 1× TBS; blots with anti-HA and anti-FLAG
T1 sequence: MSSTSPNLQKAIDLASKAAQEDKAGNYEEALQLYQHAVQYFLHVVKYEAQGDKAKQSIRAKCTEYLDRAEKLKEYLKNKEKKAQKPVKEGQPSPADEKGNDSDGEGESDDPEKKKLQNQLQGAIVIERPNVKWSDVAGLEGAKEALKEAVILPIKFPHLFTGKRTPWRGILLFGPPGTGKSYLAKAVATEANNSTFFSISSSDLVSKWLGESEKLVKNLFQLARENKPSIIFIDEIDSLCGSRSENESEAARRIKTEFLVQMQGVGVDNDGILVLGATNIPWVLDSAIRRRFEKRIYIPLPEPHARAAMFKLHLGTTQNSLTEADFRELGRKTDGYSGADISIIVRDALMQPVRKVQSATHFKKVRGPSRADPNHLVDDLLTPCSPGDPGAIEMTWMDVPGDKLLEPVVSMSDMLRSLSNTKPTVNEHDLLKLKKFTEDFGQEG

Chains of the proteins cited; added tags and fusions are not shown.
UniProt Q96K21: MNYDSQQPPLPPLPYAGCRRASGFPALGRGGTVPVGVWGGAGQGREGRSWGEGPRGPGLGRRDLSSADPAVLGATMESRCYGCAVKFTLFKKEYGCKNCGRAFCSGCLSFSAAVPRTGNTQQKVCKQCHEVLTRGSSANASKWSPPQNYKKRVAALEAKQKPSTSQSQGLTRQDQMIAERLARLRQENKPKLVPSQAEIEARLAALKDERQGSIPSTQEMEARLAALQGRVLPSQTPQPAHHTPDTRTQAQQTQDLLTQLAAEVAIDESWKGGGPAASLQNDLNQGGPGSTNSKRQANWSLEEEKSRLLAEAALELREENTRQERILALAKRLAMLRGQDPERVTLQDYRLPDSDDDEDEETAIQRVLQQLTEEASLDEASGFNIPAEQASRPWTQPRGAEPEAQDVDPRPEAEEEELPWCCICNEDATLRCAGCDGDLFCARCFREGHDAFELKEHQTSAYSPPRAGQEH

HA-tagged VPS4A (human) = target: T2, HA-tagged VPS4A (human) (UniProt Q9UN37); test: as above
T2 sequence: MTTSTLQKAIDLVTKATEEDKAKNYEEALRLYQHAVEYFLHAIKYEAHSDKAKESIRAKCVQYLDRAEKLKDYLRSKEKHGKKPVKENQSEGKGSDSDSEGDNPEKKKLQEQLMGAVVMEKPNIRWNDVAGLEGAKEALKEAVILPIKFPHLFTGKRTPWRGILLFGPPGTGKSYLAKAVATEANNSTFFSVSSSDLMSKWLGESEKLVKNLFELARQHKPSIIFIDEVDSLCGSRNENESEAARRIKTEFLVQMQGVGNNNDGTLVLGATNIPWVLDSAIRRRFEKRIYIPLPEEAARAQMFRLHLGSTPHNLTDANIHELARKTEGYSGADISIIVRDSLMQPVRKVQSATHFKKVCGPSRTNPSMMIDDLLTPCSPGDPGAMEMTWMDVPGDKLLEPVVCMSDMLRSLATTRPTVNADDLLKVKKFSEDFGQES

binding (HA-tagged VPS4B (human)): binds
binding (HA-tagged VPS4A (human)): binds
Substance: FLAG-tagged ZFYVE19 (Zinc Finger FYVE-Type Containing 19) (from UniProt Q96K21 1-471)

From publication PMC12884770
